Consider two molecules from doi:10.1101/2023.09.07.556688 (bioRxiv, 2023).

The target in test [1] is atP5CS2-F80A mutant (Arabidopsis thaliana) (UniProt P54888). Put plainly: negative-stain EM.
For test [2], the target named is truncated atP5CS2 protein consisting of residues 1-290 (atP5CS2-GK) (Arabidopsis thaliana) (UniProt P54888). As to the kind of experiment: negative-stain EM.

Results are given in words; binding and its absence hold for the method and conditions named. Some binding calls cover weakened binding; strength is not graded here.

B1: atP5CS2-F80A mutant (enzyme, UniProt P54888 1-726)
chain: MTEIDRSRAFAKDVKRIVVKVGTAVVTGKGGRLALGRLGAICEQLAELNSDGFEVILVSSGAVGLGRQRLRYRQLVNSSAADLQKPQMELDGKACAGVGQSSLMAYYETMFDQLDVTVAQMLVTDSSFRDKDFRKQLSETVKAMLRMRVIPVFNENDAISTRRAPYKDSTGIFWDNDSLAALLSLELKADLLILLSDVEGLYTGPPSDSTSKLIHTFIKEKHQDEITFGEKSKLGRGGMTAKVKAAVNAAYGGVPVIITSGYAAENISKVLRGLRVGTLFHQDAHLWAPVVDTTSRDMAVAARESSRKLQALSSEDRKQILHDIANALEVNEKTIKAENDLDVAAAQEAGYEESLVARLVMKPGKISSLAASVRQLAEMEDPIGRVLKKTQVADDLILEKTSSPIGVLLIVFESRPDALVQIASLAIRSGNGLLLKGGKEARRSNAILHKVITDAIPETVGGKLIGLVTSREEIPDLLKLDDVIDLVIPRGSNKLVSQIKNSTKIPVLGHADGICHVYVDKSGKLDMAKRIVSDAKLDYPAACNAMETLLVHKDLEQNGFLDDLIYVLQTKGVTLYGGPRASAKLNIPETKSFHHEYSSKACTVEIVEDVYGAIDHIHQHGSAHTDCIVTEDSEVAEIFLRQVDSAAVFHNASTRFSDGFRFGLGAEVGISTSRIHARGPVGVEGLLTTRWIMRGKGQVVDGDNGIVYTHKDLPVLQRTEAVENGI
With B1, the binding entry in test [1] was “no binding”.

B2: truncated atP5CS2 protein consisting of residues 1-290 (atP5CS2-GK) (domain or fragment, Arabidopsis thaliana, UniProt P54888 1-290, looked up)
chain: MTEIDRSRAFAKDVKRIVVKVGTAVVTGKGGRLALGRLGAICEQLAELNSDGFEVILVSSGAVGLGRQRLRYRQLVNSSFADLQKPQMELDGKACAGVGQSSLMAYYETMFDQLDVTVAQMLVTDSSFRDKDFRKQLSETVKAMLRMRVIPVFNENDAISTRRAPYKDSTGIFWDNDSLAALLSLELKADLLILLSDVEGLYTGPPSDSTSKLIHTFIKEKHQDEITFGEKSKLGRGGMTAKVKAAVNAAYGGVPVIITSGYAAENISKVLRGLRVGTLFHQDAHLWAPV
On to B2, for which, in test [2], the binding result is listed as “binds weakly”.
